In all, about 320,000 compounds went through this assay and about 22,000 (6.9%) were called active. The shares of active, inactive and inconclusive entries below differ from those in the screen. Calls follow the shape of the dose curve; as a rule, active = well fitted inhibition curve with a large enough effect; inconclusive = small, poorly fitted or top-dose-only effect, or another doubt; inactive = no such curve, though single readings can be large or run the other way. Potencies of inconclusive entries are doubtful fits and often do not repeat.
Test: Primary qHTS for delayed death inhibitors of the malarial parasite plastid, 96 hour incubation
Details: P. falciparum luciferase reporter growth; series mostly up to 28.7 µM
How it was run: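 Delayed-death screen, second-generation endpoint: infected erythrocytes, 2% hematocrit, 0.05% parasitemia final; 96 hours at 37 C, 5% CO2; luciferase detection reagent; luminescence decrease equals reduced growth.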
With `O=C(O)c1ccccc1NSc1ccccc1[N+](=O)[O-]` the Potency was inconclusive: 5.86 µM [inhibitor, single point]. With `O=C(COc1ccc(Br)cc1)NCCO` the Potency was inconclusive: 6.57 µM [inhibitor, partial curve, poor fit]. In the case of `Cc1ccc2nccc(C(=O)N3CCCC(Nc4ccc(F)cc4)C3)c2c1` (stereo unspecified), the Potency is reported as inconclusive: 10.4 µM [inhibitor, single point]. For `O=C(Nc1ccc(F)cc1)Nc1ccc(S(=O)(=O)N2CCCC2)cc1`, the Potency was active: 7.38 µM. With `CC1CCN(C(=O)Cn2c3ccccc3c3nc4n(c(=O)c32)CCS4)CC1` the Potency was inconclusive: 11.7 µM [inhibitor, partial curve, poor fit]. For `Cc1ccc2nc3n(c(=O)c2c1)CCC3`, the Potency was inconclusive: 0.0029 µM [inhibitor, full curve, poor fit]. In the case of `Cn1nnc(C(O)CN2CCOCC2)n1` (stereo unspecified), the Potency is reported as inconclusive: 18.5 µM [inhibitor, single point]. For `COc1cc(CNC(C)(C)CO)cc(Br)c1OCc1ccc(Cl)cc1`, the Potency was inconclusive: 18.5 µM [inhibitor, single point]. With `COc1ccc([N+](=O)[O-])cc1NS(=O)(=O)c1ccc(Cl)c(C(=O)Nc2sc3c(c2C#N)CCCCC3)c1` the Potency was “inactive”. For `CC(C)(C)NC(=O)NC(=O)CN1CCN(c2ccccc2)CC1`, the Potency was inconclusive: 0.262 µM [inhibitor, full curve, poor fit]. For `CN(CC(=O)NCc1ccco1)S(=O)(=O)c1cccc2cccnc12`, the Potency was “inactive”. With `CSCCNCc1c(C(=O)N2CCOCC2)nc2c(C)cccn12` the Potency was inconclusive: 18.5 µM [inhibitor, single point]. With `c1ccc2c(c1)nc(N1CCCCCC1)c1ccccc12` the Potency was “inactive”. With `O=C(NCCO)c1nc(C(=O)c2ccccc2)c2ccccc2n1` the Potency was “inactive”. For `CCOC(=O)Cn1c(C)c(C#N)c2ccccc21`, the Potency was inconclusive: 11.7 µM [inhibitor, single point]. With `O=c1oc2ccccc2cc1-c1csc(NN=C2CCCC2)n1` the Potency was inconclusive: 18.5 µM [inhibitor, single point]. With `Cc1cc(Cl)ccc1OCCCC(=O)NCCN1C(=O)S/C(=C\c2cccnc2)C1=O` the Potency was inconclusive: 8.28 µM [inhibitor, partial curve, poor fit]. With `Cc1c(Cl)cccc1NS(=O)(=O)c1ccc2c(c1)C1C=CCC1C(c1ccc(C(=O)O)cc1)N2` (stereo unspecified) the Potency was inconclusive: 18.5 µM [inhibitor, single point]. For `Cc1c(Cl)c([N+](=O)[O-])nn1CC(=O)NC12CC3CC(CC(C3)C1)C2`, the Potency was inconclusive: 18.5 µM [inhibitor, single point]. With `CC1Oc2ccccc2C=C1/C=N/NC(=O)c1ccccc1` (stereo unspecified) the Potency was inconclusive: 4.65 µM [inhibitor, partial curve, poor fit]. In the case of `O=C(Nn1cnc2ccccc2c1=O)c1ccc([N+](=O)[O-])cc1Cl`, the Potency is reported as inconclusive: 10.4 µM [inhibitor, single point]. With `CCc1cccc(C)c1N1C(=O)CN(Cc2ccccc2)C1=S` the Potency was inconclusive: 6.57 µM [inhibitor, partial curve]. In the case of `CCOC(=O)c1cc(C)n(-c2ccc(OC)c(OC)c2)c1C`, the Potency is reported as “inactive”. With `COc1ccc([C@H]2[C@H](C(=O)OC(C)(C)C)N3N=Cc4ccccc4C3C23C(=O)c2ccccc2C3=O)cc1OC` (stereo partly specified) the Potency was active: 9.28 µM. With `CCOCCCNC(=O)C1(O)c2ccccc2NC(=O)N1c1ccc(Cl)c(Cl)c1` (stereo unspecified) the Potency was inconclusive: 11.7 µM [inhibitor, partial curve]. In the case of `Nc1c(N2CCCC2)cc(Cl)c2nonc12`, the Potency is reported as inconclusive: 18.5 µM [inhibitor, single point]. For `O=C(CCCCCCCCCCCCC1CCCC1)Nc1ccc(S(=O)(=O)c2ccc(NC(=O)CCCCCCCCCCCCC3CCCC3)cc2)cc1`, the Potency was inconclusive: 13.5 µM [inhibitor, partial curve, poor fit]. With `O=C1N(c2cccc(Cl)c2)C(c2ccccc2)N2CCCN12` (stereo unspecified) the Potency was inconclusive: 18.5 µM [inhibitor, single point]. With `CC(C)[C@H](NC(=O)c1ccccc1Cl)C(=O)OCc1cc([N+](=O)[O-])cc2c1OCOC2` the Potency was inconclusive: 18.5 µM [inhibitor, single point]. With `CCC(=O)Nc1cc(-c2nn(C)c(=O)c3ccccc23)ccc1N1CCOCC1` the Potency was inconclusive: 18.5 µM [inhibitor, single point]. In the case of `CCCC(=O)Nc1cccc(NC(=O)c2ccc3c(c2)OCCO3)c1`, the Potency is reported as inconclusive: 18.5 µM [inhibitor, single point]. With `CCN1CCN(Cc2ccc(NC(=O)c3cc(NC(=O)c4cnnc5ccccc45)cc(OC)c3)cc2C(F)(F)F)CC1` the Potency was active: 2.94 µM. For `CC(=O)Nc1ccccc1NC(=O)C/C(C)=N/NC(=O)c1ccccn1`, the Potency was inconclusive: 4.15 µM [inhibitor, single point]. With `O=C(CCl)N1CCN(CC(=O)N2CCCC2)CC1` the Potency was inconclusive: 10.4 µM [inhibitor, partial curve]. For `CNC(=O)c1nc(C)n(-c2cc(Cl)cc(Cl)c2)n1`, the Potency was “inactive”. With `CCOc1ccc(NC(=O)C2C3c4ccccc4C(c4ccccc43)C2C(=O)O)cc1` (stereo unspecified) the Potency was inconclusive: 4.15 µM [inhibitor, partial curve, poor fit]. For `O=C1/C(=C\c2ccccc2)C2OCC=C3CN4CCC56c7ccccc7N1C5C2C3CC46` (stereo unspecified), the Potency was active: 2.62 µM. In the case of `COc1ccc(-c2nnc(NC(=O)c3ccccc3C)o2)cc1`, the Potency is reported as inconclusive: 11.7 µM [inhibitor, single point]. With `CCN(CC)c1nc2c(c(=O)[nH]c(=O)n2C)n1CCOc1ccccc1` the Potency was active: 0.657 µM. For `CCOc1cc(/C=C/C(=O)Nc2ccc(C(=O)NCCN(CC)CC)cc2)ccc1OCC(C)C`, the Potency was active: 0.522 µM. For `C#Cc1ccc([C@@H]2C=C(C(=O)NCc3ccccc3)O[C@H](OCC)[C@H]2CCCO)cc1`, the Potency was inconclusive: 18.5 µM [inhibitor, single point]. With `COc1cc(C(=O)NCC(=O)NCC(c2ccco2)N2CCCCC2)cc(OC)c1OC` (stereo unspecified) the Potency was active: 3.29 µM. With `O=C(NC1CCN(S(=O)(=O)c2cccc(Cl)c2)CC1)C1CCCCC1` the Potency was “inactive”. With `CCC(C)C(=O)OC1CC(O)C=C2C=CC(C)C(CCC(O)CC(O)CC(=O)O)C21` (stereo unspecified) the Potency was “inactive”. For `S=C(NCC1COc2ccccc2O1)Nc1ccccc1` (stereo unspecified), the Potency was inconclusive: 11.7 µM [inhibitor, single point]. With `CC(C)(O)C#Cc1ccc(C(=O)NC(CCCNC(N)=O)C(=O)O)s1` (stereo unspecified) the Potency was inconclusive: 0.0029 µM [inhibitor, full curve, poor fit]. For `Cc1cc(C)n(-c2ccc(NC(=O)C3CCCCN3C(=O)c3cc(C)oc3C)cc2)n1` (stereo unspecified), the Potency was inconclusive: 18.5 µM [inhibitor, single point]. With `O=S(=O)(Cc1cc(N2CCOCC2)nc(-c2ccccn2)n1)c1ccccc1` the Potency was inconclusive: 18.5 µM [inhibitor, single point]. With `N/C(CC1CC1(Cl)Cl)=N\OC(=O)c1ccccc1` (stereo unspecified) the Potency was inconclusive: 18.5 µM [inhibitor, single point]. With `Cc1ccc2c(c1)NCC(C(=O)NC1CCCCC1)O2` (stereo unspecified) the Potency was “inactive”. In the case of `O=C(OCc1ccc(F)cc1)c1cc2ccccc2cc1O`, the Potency is reported as inconclusive: 0.329 µM [inhibitor, full curve]. In the case of `CCc1ccc(NC(=O)COC(=O)C2(c3ccc(Cl)cc3)CCCC2)cc1`, the Potency is reported as active: 14.7 µM. In the case of `Cc1ccc(CN2CCN(CC(=O)N=Nc3c(O)[nH]c4ccccc34)CC2)cc1`, the Potency is reported as inconclusive: 8.28 µM [inhibitor, partial curve]. With `NS(=O)(=O)c1ccc(NC(=S)N2CCN(c3cccc(Cl)c3)CC2)cc1` the Potency was inconclusive: 13.1 µM [inhibitor, single point]. With `CCOc1cccc(-c2c(C(=O)N/N=C/c3ccc(C)s3)nnn2-c2nonc2N)c1` the Potency was active: 14.7 µM. With `CCOC(=O)N1CCC(N2C(=O)c3cc(C(=O)NC4CCCCC4)ccc3C2O)CC1` (stereo unspecified) the Potency was inconclusive: 9.28 µM [inhibitor, single point]. In the case of `COc1ccccc1/C=C1/SC(=S)N(CCC(=O)Nc2cccnc2)C1=O`, the Potency is reported as inconclusive: 1.65 µM [inhibitor, full curve, poor fit]. In the case of `O=[N+]([O-])c1cc(N=Nc2ccc3ccccc3c2)ccc1O`, the Potency is reported as “inactive”. For `C/C(CC(=O)Nc1cc(Cl)ccc1Cl)=N\NC(=O)c1ccco1`, the Potency was inconclusive: 0.104 µM [inhibitor, full curve, poor fit]. With `N#Cc1ccc(-c2cn(-c3ccccc3)c3[n+]2CCCS3)cc1` the Potency was inconclusive: 3.7 µM [inhibitor, single point]. With `CC(=O)Nc1c([N+](=O)[O-])cc2[nH]c(=O)[nH]c2c1[N+](=O)[O-]` the Potency was “inactive”. For `CN(CCOc1ccc(Cl)cc1)CC(O)c1ccccc1` (stereo unspecified), the Potency was inconclusive: 6.57 µM [inhibitor, partial curve, poor fit]. For `CC(C)[C@@]1(NC(=O)[C@@H]2C=C3c4cccc5[nH]cc(c45)C[C@H]3N(C)C2)O[C@@]2(O)[C@@H]3CCCN3C(=O)[C@H](Cc3ccccc3)N2C1=O`, the Potency was active: 2.33 µM. In the case of `Cc1ccc(C(=O)Nc2ccc(S(=O)(=O)N3CCN(C)CC3)cc2)cc1`, the Potency is reported as inconclusive: 11.7 µM [inhibitor, single point]. With `CC(C)(C)OC(=O)N[C@@H](Cc1ccccc1)c1nnc(SCC(=O)c2ccc(Cl)cc2)o1` the Potency was inconclusive: 9.28 µM [inhibitor, partial curve, poor fit]. With `O=C1S/C(=C/c2ccc(N3CCOCC3)o2)C(=O)N1Cc1ccc(F)cc1` the Potency was inconclusive: 18.5 µM [inhibitor, single point].
Potency is read from the fitted curve at half-maximal effect.
